Laboratory results published in PMC4366279 (PLoS ONE, 2015).
No constants are given. Whether binding was seen depends on the method and setting. In cells and extracts the contact can be indirect. Some results given as binding are weak or reduced against the parent protein; the word gives no strength.

Experiments:
Assay in all cases: pull-down; His6-TbREL1 TNT mixture mixed with an equal volume of untagged KREPA2 TNT mixture, captured on magnetic His-tag isolation beads (Dynabeads); binding buffer 50 mM NaPO4 pH 8.0, 300 mM NaCl, 0.01% Tween 20; 20-30 min at 4°C; three washes; [35S]-methionine-labelled proteins on 10% SDS-PAGE, PhosphorImager; KREPA2-only control for background
[1] = target: T1, TbREL1 E81A (Trypanosoma brucei) (UniProt P86926)
T1 sequence (chain, [35S]-methionine labelled): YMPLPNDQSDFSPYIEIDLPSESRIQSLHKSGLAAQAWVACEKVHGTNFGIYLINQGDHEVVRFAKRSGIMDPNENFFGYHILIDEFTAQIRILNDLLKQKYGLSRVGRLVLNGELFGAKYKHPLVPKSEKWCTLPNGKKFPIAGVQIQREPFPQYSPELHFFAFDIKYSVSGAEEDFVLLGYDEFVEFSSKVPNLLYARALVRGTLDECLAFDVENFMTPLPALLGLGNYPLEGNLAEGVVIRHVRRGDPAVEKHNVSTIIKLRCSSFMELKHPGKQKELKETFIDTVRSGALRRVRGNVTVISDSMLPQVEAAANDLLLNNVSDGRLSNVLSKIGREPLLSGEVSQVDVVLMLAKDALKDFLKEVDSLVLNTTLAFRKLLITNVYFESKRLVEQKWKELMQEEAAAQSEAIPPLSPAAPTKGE

[2] = target: T2, TbREL1 K405A (Trypanosoma brucei) (UniProt P86926)
T2 sequence (chain, [35S]-methionine labelled): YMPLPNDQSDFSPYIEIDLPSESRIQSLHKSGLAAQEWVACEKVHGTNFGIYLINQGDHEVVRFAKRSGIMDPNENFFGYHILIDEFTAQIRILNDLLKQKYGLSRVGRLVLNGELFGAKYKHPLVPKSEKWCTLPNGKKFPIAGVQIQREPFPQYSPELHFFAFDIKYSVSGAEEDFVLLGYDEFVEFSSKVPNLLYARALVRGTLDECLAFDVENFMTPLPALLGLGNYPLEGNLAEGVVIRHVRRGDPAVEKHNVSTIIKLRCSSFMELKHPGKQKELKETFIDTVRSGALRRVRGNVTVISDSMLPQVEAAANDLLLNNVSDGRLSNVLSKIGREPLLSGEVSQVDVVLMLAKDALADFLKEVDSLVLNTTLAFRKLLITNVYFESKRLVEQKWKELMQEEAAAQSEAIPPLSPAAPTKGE

[3] = target: T3, TbREL1 Q100A (Trypanosoma brucei) (UniProt P86926)
T3 sequence (chain, [35S]-methionine labelled): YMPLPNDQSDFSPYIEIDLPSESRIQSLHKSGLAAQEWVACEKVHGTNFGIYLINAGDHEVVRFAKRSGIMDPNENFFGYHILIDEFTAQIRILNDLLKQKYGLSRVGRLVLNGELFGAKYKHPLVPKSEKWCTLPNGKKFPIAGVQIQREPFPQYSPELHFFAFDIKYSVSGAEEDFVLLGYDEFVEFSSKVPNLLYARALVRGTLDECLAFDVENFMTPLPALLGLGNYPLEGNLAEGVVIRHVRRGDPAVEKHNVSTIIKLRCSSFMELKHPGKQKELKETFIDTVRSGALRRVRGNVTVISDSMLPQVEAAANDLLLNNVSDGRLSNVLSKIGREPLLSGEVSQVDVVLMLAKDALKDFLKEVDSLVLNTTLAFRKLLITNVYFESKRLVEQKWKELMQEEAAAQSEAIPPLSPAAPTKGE

[4] = target: T4, TbREL1 W442A (Trypanosoma brucei) (UniProt P86926)
T4 sequence (chain, [35S]-methionine labelled): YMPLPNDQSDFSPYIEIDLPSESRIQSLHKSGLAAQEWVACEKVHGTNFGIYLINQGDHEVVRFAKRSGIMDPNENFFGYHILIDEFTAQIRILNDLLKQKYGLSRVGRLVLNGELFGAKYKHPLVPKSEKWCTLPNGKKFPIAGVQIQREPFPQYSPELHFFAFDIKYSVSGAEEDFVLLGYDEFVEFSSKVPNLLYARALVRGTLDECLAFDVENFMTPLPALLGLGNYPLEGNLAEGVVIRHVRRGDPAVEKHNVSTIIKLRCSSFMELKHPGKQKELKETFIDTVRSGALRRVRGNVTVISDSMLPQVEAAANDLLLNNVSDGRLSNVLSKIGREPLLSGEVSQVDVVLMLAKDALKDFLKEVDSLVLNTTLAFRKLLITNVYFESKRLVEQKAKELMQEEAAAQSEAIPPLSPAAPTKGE

Measured: binding

B1: KREPA2 (natural protein)
chain: MYRRFFRSAAVKHLGTTSAQCLMRATKYPCGAMCRNASSCHPQTLGYQQRFQSTTDKKFHCSVCKKPFRLEMAAKLHLQQAHGGDGSVEAGPGPGVEASSVNVVSTPVPSPISPVERTFVDEEERRPRRMRPTPKPLHQPDRDIPAAAMEEMLGVWDKIGLNRLEGNFVHSTMVMKVFAAPPDVSEIPLYEHVAPEGENPFDSLDHMTTGTVDATYVGHDAFAEVDLVDPFVAAPDQTLNPFRAGKVRNPFTRISPTQREVVKPLQPPQPKEEPLKAPVTPFGQLPMFGQTREPSASFAAAAVSVQAAANPNEVSSPFAAAVSSSPFVGQVASPFAPAQDVAGSPFEASPCAASSPFVTAGGQETSPFAAPSTPASFGQGSLFPPMGTGAPGFTAITETEQRQQELEHGCPTCGKKFSTFEGAAMHSKSKHGIVLESKKVKDRLNRKGVPDLPAYVPSPVDLSSTSPFGTRSAIGASWAETELIPHAQCVSNITIVGRVLDVSQASENVSHVTVFVEGERSGEEETLTLCCFGEVSQKIRGTLKRNATIFASGTLRLHPVYEASNNKYYVSPVVHVSMPTGTLAVIT
modifications: [35S]-methionine labelled
notes: KREPA2 of T. brucei, the KREPA2 open reading frame, expressed untagged (63 kDa); source: in vitro translated (TNT reticulocyte lysate coupled transcription and translation system, Promega)
binds: all assays above
